Patent US20130210042A1, “DIAGNOSTIC AND PROGNOSTIC METHOD FOR HUMAN TAUOPATHIES” (CONSIGLIO NAZIONALE DELLE RICERCHE, priority 2010, published 2013)
No constants are given. Whether binding was seen depends on the method and setting. For some of these results: Binding seen in cells or lysates may run through a third protein. Some entries that bind do so weakly or less than the wild type.

Protein sequences, listed by entry. Tags and fused reporters are not part of them. Lines headed by an entry give the natural chain unless they say otherwise; changes in a name come on top.
UniProt P10636: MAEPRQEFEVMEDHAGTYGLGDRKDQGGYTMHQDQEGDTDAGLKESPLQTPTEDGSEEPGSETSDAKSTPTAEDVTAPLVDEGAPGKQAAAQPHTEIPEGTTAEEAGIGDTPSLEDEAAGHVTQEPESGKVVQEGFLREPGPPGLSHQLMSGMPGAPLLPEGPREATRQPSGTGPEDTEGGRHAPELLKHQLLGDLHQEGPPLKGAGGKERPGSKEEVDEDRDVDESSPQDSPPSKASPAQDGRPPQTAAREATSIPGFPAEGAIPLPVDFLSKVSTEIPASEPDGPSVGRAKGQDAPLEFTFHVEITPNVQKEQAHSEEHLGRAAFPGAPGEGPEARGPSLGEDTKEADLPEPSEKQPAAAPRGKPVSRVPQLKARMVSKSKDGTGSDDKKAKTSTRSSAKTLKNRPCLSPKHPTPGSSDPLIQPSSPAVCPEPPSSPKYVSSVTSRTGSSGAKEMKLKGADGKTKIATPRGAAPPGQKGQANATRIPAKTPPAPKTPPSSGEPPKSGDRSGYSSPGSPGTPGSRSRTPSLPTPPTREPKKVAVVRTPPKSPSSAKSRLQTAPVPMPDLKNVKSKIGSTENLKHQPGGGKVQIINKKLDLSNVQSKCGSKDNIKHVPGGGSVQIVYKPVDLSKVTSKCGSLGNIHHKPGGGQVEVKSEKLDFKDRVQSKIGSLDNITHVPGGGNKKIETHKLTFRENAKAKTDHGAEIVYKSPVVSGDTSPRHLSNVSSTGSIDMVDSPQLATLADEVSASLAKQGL

Experiments:
[1] = target: T1, ANT1: ADP/ATP translocase 1 [Homo sapiens] (Homo sapiens) (UniProt P12235); experiment: co-immunoprecipitation
T1 sequence: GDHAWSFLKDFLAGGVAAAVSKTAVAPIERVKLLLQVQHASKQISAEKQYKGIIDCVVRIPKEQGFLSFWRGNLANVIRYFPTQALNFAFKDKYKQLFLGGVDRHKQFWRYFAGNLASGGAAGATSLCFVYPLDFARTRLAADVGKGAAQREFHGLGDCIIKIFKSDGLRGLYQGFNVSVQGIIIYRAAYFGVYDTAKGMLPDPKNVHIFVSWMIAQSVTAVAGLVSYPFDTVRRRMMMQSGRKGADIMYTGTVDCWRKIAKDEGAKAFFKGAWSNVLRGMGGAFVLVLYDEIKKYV

[2] = target: T1, ANT1: ADP/ATP translocase 1 [Homo sapiens] (Homo sapiens); experiment: reciprocal co-immunoprecipitation and confocal colocalisation
[3] = target: T1, ANT1: ADP/ATP translocase 1 [Homo sapiens] (Homo sapiens); experiment: co-immunoprecipitation from AD synaptosomes, bait CCP-NH2 tau antiserum, Western blot with ANT-1 antibody
[4] = target: T1, ANT1: ADP/ATP translocase 1 [Homo sapiens] (Homo sapiens); experiment: reciprocal immunoprecipitation from synaptic mitochondria with ANT-1 antibody, Western blot with CCP-NH2 tau

binding [1]: binds
binding [2]: binds
binding [3]: binds
binding [4]: binds
Substance: 20-22 kDa NH2-truncated tau fragment (from UniProt P10636 26-547)
